Laboratory results taken from patent US20220380444A1.
These are yes or no findings as the source states them, for the method shown. Some entries that bind do so weakly or less than the wild type.

Chains of the proteins cited; added tags and fusions are not shown. Lines headed by an entry give the natural chain unless they say otherwise; changes in a name come on top.
UniProt P10643: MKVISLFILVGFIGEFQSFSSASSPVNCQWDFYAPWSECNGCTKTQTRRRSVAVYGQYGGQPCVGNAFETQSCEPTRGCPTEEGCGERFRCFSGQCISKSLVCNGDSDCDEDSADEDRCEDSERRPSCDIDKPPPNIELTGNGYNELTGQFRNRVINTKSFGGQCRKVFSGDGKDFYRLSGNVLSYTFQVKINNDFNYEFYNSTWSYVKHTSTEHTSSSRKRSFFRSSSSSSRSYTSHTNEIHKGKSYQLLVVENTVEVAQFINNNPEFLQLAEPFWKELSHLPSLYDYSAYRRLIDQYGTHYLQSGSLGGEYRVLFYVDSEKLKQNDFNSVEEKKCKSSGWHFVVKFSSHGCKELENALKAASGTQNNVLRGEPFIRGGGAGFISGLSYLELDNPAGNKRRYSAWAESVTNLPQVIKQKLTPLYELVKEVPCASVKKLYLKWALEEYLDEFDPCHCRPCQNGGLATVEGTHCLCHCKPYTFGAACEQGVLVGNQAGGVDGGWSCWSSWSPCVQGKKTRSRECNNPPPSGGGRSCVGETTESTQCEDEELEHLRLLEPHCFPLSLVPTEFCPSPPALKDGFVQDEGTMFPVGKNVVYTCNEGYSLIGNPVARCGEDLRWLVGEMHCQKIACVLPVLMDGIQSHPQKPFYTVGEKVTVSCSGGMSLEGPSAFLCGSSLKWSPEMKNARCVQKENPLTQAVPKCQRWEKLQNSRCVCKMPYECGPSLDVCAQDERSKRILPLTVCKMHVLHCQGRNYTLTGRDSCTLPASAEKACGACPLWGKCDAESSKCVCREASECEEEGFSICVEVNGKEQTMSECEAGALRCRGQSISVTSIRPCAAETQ

Legend:
[1] = target: human complement protein C7 (human) (UniProt P10643); assay: sandwich ELISA, 2H2 coated as capture, human C7 titrated, polyclonal anti-C7 as detection
[2] = target: human complement protein C7 (human) (UniProt P10643); assay: western blot of serum, non-reducing conditions (no detection under reducing conditions)
[3] = target: human complement protein C7 (human) (UniProt P10643); assay: direct ELISA and sandwich ELISA
[4] = target: human complement protein C7 (human) (UniProt P10643); assay: sandwich ELISA, 2H2 coated as capture, human C7 titrated, Poly anti-C7 as detection
[5] = target: human complement protein C7 (human) (UniProt P10643); assay: sandwich ELISA, goat anti-C7 coated as capture, human C7 titrated, labelled 2H2 as detection
[6] = target: human complement protein C7 (human) (UniProt P10643); assay: western blot
[7] = target: human complement protein C7 (human) (UniProt P10643); assay: sandwich ELISA, 2H2 coated as capture, human C7 titrated, goat anti-C7 as detection
[8] = target: human complement protein C7 (human) (UniProt P10643); assay: direct ELISA, human C7 on the well, antibody titrated
[9] = target: human complement protein C7 (human) (UniProt P10643); assay: western blot, non-reduced human serum
[10] = target: human complement protein C7 (human) (UniProt P10643); assay: direct ELISA, C7 coated on plate
[11] = target: human complement protein C7 (human) (UniProt P10643); assay: sandwich ELISA, goat anti-C7 coated as capture, human C7 titrated, labelled 17E7 as detection
[12] = target: human complement protein C7 (human) (UniProt P10643); assay: western blot, non-reducing conditions (no detection under reducing conditions)
[13] = target: human complement protein C7 (human) (UniProt P10643); assay: SPR (Biacore)
[14] = target: human complement protein C7 (human) (UniProt P10643); assay: western blot of human serum, non-reduced (NR) and reduced (R)
[15] = target: human complement protein C7 (human) (UniProt P10643); assay: direct ELISA, C7 immobilised on the well, antibody titrated
[16] = target: human complement protein C7 (human) (UniProt P10643); assay: western blot of human serum, reduced (R) and non-reduced (NR)
[17] = target: human complement protein C7 (human) (UniProt P10643); assay: sandwich ELISA, 17E7 coated as capture, human C7 titrated, Poly anti-C7 as detection
[18] = target: human complement protein C7 (human) (UniProt P10643); assay: sandwich ELISA, goat anti-C7 coated as capture, human C7 titrated, labelled 73D1 as detection
[19] = target: human complement protein C7 (human) (UniProt P10643); assay: western blot, non-reduced, purified C7 and human serum
[20] = target: human complement protein C7 (human) (UniProt P10643); assay: sandwich ELISA, 73D1 coated as capture, human C7 titrated, Poly anti-C7 as detection

Measured: binding

B1: monoclonal anti-C7 antibody 2H2 (antibody, IgG2b, V domains shown)
VH: QVQLQQPGAELMKPGASVKLSCKASGYIFTSYWMHWVKQRPGRGLEWIGRIDPNSGGTNYNEKFKSKATLTVDKPSSTVYMKISSLTSEDSAVYYCAREHDYDYAMDYWGQGTSVTVSS
VL: DIVMTQAAPSVPVTPGESVSISCRSSKSLLHSNGNTYLYWFLQRPGQSPQLLIYRMSNLASGVPDRFSGSGSGTAFTLRISRVEAEDVGVYYCMQHLEYPFTFGSGTKLEIK
binds: [1] | [2] | [3] | [4] | [5] | [6] | [7] | [8] | [9] | [10]

B2: monoclonal anti-C7 antibody 17E7 (antibody, IgG2a, V domains shown)
VH: EVQLQQSGTVLARPGASVKMSCKTSGYSFTTYWMHWVKQRPGQGLEWIGAIYPGNSDTYYSQKFKDKAKLTAVTSASTAYMELSSLTNEDSAVYYCTRSGGYDVGGLDYWGQGTTLTVSS
VL: DIVMTQSPATLSVTPGDGVSLSCRASQSISDYLHWYQQKSHESPRLLIKFASQSISGIPSRFSGSGSGSDFTLSINSVEPEDVGMYYCQNGHSFPFTFGSGTKLELK
binds: [11] | [12] | [13] | [8] | [14] | [15] | [16] | [10] | [17]

B3: monoclonal anti-C7 antibody 73D1 (antibody, IgG2a, V domains shown)
VH: EVQLQQSGPELVKPGASVKMSCKASGYTFTDYNMHWVKQSHGKSLEWIGYINPNNGGPSYNQNFKGKATLTVNKSSSTAYMELRSLTSEDSAVYYCACGNYPDYWGQGTTLTVSS
VL: DIQMTQSPASLSASVGETVTITCRASGNIHNYLAWYQQKQGKSPQLLVYNAKTLADGVPSRFSGSGSGTQYSLKINSLQPEDFGSYYCQHFWSTPLTFGAGTKLELK
binds: [18] | [13] | [6] | [19] | [8] | [20] | [10]
